Compound in this test: CC1Cc2ccccc2N1C(=O)C1CCCN(C1)C(=O)CCl (mixture of isomers) [TRIM25 ligand 11 (diastereomer mixture)]
As to the kind of experiment: probe-labelled cysteine peptide fold change vs DMSO (competition) (log2 fold change); higher = less target engagement (more negative = stronger competition). Particulars: THP-1, incubation time: 4 h.

By UniProt entry, the sequences of proteins in these tests, tags left out. Where a name states a change or a piece, a line headed by the entry shows the natural chain unless it says otherwise.
UniProt P49588, whole entry, looked up: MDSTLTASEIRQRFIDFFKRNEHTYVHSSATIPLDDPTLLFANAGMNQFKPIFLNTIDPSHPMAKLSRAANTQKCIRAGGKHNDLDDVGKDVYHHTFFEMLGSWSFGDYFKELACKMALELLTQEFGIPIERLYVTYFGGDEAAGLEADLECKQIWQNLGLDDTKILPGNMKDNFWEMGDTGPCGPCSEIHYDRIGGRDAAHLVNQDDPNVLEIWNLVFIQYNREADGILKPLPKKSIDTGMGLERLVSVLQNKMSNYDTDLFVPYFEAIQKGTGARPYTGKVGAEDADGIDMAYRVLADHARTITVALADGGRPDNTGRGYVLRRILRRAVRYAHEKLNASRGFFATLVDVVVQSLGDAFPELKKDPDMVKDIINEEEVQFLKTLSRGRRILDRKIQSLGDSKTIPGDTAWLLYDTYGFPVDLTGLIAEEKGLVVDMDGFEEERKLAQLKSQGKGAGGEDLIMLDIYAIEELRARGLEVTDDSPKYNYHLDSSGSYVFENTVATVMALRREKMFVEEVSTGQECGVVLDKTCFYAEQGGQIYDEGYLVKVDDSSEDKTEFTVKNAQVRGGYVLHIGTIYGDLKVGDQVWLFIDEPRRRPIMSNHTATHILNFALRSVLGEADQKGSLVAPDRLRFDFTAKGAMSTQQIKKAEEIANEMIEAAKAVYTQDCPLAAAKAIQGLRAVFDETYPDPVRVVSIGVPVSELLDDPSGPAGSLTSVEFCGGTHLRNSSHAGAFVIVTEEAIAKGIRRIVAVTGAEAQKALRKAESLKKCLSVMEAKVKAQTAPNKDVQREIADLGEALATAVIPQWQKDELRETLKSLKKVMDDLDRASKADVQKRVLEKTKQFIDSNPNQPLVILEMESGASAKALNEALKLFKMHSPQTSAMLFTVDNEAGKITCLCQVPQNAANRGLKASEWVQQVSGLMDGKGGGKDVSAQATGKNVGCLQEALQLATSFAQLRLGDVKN
UniProt Q9H3P7: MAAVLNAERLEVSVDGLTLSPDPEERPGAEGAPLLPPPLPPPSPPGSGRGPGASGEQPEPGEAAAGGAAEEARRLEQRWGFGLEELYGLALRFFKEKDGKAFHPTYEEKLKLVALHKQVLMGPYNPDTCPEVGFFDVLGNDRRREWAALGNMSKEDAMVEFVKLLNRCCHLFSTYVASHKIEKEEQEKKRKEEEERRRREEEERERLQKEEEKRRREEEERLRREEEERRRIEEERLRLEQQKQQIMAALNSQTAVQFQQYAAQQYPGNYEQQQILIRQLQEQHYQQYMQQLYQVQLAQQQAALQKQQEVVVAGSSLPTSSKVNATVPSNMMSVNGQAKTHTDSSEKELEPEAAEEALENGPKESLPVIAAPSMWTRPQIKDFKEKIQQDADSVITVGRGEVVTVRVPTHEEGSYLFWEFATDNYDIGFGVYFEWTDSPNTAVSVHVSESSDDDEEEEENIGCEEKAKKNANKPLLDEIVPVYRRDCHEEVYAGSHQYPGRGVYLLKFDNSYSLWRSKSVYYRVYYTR
UniProt Q86V21: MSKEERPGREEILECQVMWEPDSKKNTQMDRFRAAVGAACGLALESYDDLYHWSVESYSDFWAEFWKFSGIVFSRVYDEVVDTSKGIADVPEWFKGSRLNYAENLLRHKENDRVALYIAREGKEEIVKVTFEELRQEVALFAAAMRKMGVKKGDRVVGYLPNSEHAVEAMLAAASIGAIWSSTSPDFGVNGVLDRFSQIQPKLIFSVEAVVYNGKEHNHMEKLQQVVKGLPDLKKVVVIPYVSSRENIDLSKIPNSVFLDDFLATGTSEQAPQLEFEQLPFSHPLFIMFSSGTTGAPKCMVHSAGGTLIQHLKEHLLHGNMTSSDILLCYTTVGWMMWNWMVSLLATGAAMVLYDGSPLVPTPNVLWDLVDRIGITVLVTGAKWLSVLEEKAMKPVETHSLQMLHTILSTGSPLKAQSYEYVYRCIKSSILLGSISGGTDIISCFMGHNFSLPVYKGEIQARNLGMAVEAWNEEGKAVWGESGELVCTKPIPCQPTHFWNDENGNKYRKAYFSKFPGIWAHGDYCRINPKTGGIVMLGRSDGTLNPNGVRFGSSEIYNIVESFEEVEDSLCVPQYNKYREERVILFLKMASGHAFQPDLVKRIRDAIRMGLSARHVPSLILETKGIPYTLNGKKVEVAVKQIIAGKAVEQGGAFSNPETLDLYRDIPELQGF
UniProt Q9BWD1: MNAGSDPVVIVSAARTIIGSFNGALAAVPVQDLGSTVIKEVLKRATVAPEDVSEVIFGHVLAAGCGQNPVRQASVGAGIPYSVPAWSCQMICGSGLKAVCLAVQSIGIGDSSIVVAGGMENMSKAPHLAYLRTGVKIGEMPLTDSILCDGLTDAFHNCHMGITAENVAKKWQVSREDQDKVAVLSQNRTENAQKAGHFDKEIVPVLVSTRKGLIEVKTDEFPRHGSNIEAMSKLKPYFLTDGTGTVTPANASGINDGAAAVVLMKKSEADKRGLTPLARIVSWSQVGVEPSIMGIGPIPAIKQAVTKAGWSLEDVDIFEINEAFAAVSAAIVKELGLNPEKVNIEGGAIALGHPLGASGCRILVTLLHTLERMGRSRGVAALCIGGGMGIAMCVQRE
UniProt P24752: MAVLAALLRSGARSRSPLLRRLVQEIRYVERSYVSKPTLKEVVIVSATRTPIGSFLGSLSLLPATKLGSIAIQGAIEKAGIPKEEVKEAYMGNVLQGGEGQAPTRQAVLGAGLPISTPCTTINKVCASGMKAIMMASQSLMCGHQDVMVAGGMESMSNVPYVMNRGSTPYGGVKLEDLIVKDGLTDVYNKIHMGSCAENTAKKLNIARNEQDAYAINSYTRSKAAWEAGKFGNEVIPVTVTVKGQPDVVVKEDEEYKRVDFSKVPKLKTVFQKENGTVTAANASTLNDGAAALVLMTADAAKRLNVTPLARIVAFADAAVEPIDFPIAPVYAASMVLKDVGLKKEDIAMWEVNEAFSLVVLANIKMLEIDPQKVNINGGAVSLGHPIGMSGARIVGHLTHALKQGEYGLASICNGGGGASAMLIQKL
UniProt O95870: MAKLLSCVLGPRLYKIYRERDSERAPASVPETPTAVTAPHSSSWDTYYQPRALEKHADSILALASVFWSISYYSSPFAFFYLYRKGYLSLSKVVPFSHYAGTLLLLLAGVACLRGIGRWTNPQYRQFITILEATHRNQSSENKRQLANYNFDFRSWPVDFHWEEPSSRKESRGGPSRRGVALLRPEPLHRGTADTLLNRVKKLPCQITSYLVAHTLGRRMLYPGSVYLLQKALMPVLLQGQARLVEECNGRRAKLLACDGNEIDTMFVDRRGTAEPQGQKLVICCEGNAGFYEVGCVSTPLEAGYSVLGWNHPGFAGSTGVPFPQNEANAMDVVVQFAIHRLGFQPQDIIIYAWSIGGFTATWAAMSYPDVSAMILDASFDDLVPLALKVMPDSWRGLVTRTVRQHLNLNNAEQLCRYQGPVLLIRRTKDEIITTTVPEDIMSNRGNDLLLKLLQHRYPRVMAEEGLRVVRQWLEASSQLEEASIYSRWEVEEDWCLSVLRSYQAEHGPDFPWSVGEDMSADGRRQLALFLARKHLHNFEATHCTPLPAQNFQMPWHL
UniProt P21399: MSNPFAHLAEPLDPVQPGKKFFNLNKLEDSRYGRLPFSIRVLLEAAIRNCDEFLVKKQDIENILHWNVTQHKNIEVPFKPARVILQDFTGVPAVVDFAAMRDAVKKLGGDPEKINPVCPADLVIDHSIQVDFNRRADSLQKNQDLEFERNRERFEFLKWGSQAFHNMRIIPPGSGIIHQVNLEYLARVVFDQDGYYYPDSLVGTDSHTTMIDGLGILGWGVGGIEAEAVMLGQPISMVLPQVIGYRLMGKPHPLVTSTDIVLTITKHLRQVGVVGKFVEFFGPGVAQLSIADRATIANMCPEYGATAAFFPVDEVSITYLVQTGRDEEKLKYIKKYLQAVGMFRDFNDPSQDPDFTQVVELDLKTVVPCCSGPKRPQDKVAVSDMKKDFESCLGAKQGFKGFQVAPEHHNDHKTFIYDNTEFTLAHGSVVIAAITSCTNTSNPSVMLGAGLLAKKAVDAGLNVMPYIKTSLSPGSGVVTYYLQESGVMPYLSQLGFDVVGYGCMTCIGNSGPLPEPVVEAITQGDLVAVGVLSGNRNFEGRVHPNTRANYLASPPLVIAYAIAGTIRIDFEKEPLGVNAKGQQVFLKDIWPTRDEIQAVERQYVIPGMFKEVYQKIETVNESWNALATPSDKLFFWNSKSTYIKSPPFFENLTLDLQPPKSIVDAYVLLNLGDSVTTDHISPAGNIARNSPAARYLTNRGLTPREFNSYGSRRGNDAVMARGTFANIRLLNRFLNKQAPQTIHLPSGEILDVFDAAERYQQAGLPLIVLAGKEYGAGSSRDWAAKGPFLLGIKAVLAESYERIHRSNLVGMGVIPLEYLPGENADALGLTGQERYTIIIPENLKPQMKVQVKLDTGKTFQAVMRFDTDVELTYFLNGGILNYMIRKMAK
UniProt P49748: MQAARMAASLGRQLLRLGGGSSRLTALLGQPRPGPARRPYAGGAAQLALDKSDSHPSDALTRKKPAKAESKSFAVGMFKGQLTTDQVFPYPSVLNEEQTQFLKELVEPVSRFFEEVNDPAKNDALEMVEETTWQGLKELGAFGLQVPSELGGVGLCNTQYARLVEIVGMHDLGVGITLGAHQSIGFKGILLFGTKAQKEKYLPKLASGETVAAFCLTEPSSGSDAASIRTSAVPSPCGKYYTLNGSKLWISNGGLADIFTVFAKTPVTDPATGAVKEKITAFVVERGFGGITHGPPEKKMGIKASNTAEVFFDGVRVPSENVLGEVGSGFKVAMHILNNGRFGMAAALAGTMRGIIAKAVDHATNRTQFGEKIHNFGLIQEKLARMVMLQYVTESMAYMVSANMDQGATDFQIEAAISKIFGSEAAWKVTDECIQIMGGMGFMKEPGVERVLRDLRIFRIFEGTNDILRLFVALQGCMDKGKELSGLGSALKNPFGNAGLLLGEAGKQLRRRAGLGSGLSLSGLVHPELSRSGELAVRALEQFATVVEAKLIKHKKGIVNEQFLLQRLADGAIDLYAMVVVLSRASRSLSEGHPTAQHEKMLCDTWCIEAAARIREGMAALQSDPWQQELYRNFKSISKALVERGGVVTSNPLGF
UniProt Q5JTZ9, whole entry, looked up: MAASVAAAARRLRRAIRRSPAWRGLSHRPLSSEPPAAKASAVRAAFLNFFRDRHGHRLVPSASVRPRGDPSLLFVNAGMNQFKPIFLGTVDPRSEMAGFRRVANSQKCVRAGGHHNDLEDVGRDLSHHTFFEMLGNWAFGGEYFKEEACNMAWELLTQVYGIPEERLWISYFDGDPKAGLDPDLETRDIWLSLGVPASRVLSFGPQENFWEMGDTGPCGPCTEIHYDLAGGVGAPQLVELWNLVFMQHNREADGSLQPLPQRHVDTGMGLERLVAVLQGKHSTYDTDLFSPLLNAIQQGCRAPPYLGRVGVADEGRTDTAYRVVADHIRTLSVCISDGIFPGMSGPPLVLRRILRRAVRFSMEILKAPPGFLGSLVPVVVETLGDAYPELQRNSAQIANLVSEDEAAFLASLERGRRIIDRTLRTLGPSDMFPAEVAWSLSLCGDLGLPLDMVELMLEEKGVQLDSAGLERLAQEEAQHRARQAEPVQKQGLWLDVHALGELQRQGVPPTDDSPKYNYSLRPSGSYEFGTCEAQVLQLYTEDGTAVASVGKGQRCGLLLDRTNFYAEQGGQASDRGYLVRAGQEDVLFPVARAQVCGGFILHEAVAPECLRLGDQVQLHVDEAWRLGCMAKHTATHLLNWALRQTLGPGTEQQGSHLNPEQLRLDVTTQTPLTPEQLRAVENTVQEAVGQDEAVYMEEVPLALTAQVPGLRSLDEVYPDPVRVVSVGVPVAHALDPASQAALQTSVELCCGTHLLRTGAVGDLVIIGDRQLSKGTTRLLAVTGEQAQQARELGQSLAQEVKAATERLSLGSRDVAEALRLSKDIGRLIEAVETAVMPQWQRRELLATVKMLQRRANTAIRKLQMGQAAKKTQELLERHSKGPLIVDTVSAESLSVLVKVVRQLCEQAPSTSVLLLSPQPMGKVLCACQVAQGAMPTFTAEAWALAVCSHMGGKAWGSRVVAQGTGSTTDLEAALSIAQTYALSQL

The values below come from the supplement of paper PMC12067093, “Discovery and optimisation of a covalent ligand for TRIM25 and its application to targeted protein ubiquitination” (Chemical Science, 2025).

The other results are listed elsewhere or left out.
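Also: competitive chemoproteomic profiling in live THP-1 cells with an iodoacetamide desthiobiotin (IA-DTB) probe, comparing probe-labelled peptide intensities in compound-treated cells against DMSO-treated controls.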

In the case of “AARS_P49588_187_DNFWEMGDTGPCGPCSEIHYDR (UniProt P49588)”, the “probe-labelled cysteine peptide fold change” value (10 µM) was -0.134 and the “probe-labelled cysteine peptide fold change” value (50 µM) was -0.137.

For “ACO2_Q99798_332_DHLVPDPGCHYDQLIEINLSELKPHINGPFTPDLAHPVAEVGK (UniProt Q99798)”, the “probe-labelled cysteine peptide fold change” value is, setting by setting: (10 µM) 0.0137; (50 µM) 0.0386.

For the target “ACBD3_Q9H3P7_129_QVLMGPYNPDTCPEVGFFDVLGNDRR (UniProt Q9H3P7)”, the “probe-labelled cysteine peptide fold change” value reads like this: (10 µM) 0.0343; (50 µM) -0.0614.

“AACS_Q86V21_299_CMVHSAGGTLIQHLK (UniProt Q86V21)”: the “probe-labelled cysteine peptide fold change” value reads like this: (10 µM) -0.0715; (50 µM) 0.154.

Consider “ACAT2_Q9BWD1_360_VNIEGGAIALGHPLGASGCR (UniProt Q9BWD1)”, for which the “probe-labelled cysteine peptide fold change” value worked out at 0.16 (10 µM) and 0.126 (50 µM).

Consider “ACAT1_P24752_196_IHMGSCAENTAK (UniProt P24752)”, for which the “probe-labelled cysteine peptide fold change” value is, setting by setting: (10 µM) -0.0775; (50 µM) -0.28.

With “ACBD3_Q9H3P7_487_DCHEEVYAGSHQYPGR (UniProt Q9H3P7)”, the “probe-labelled cysteine peptide fold change” value by setting is: (10 µM) -0.0193; (50 µM) 0.00597.

As to “ABHD16A_O95870_205_KLPCQITSYLVAHTLGR (UniProt O95870)”, the “probe-labelled cysteine peptide fold change” value is -0.152 (10 µM) and 0.0294 (50 µM).

Turning to “ACO1_P21399_118_INPVCPADLVIDHSIQVDFNRR (UniProt P21399)”, the “probe-labelled cysteine peptide fold change” value by setting is: (10 µM) -0.044; (50 µM) 0.0205.

With “ACADSB_P45954_385_CIEWMGGVGYTK (UniProt P45954)”, the “probe-labelled cysteine peptide fold change” value (10 µM) was found to be 0.127 and the “probe-labelled cysteine peptide fold change” value (50 µM) came out at 0.154.

As to “ACADVL_P49748_603_MLCDTWCIEAAAR (UniProt P49748)”, the “probe-labelled cysteine peptide fold change” value is, setting by setting: (10 µM) 0.0675; (50 µM) -0.13.

Regarding “AARS2_Q5JTZ9_300_HSTYDTDLFSPLLNAIQQGCR (UniProt Q5JTZ9)”, the “probe-labelled cysteine peptide fold change” value was determined as 0.22 (10 µM) and 0.0945 (50 µM).

For “ACOT13_Q9NPJ3_74_VEEEHTNAIGTLHGGLTATLVDNISTMALLCTER (UniProt Q9NPJ3)”, the “probe-labelled cysteine peptide fold change” value is -0.202 (10 µM) and 0.169 (50 µM).
